In paper PMC5029668:
No constants are given. Whether binding was seen depends on the method and setting. Binding seen in cells or lysates may run through a third protein. For some assays here: Binding calls can cover weak binding; strength is not graded here.

Protein sequences, listed by entry. Tags and fused reporters are not part of them. Lines headed by an entry give the natural chain unless they say otherwise; changes in a name come on top.
UniProt Q9QZR0: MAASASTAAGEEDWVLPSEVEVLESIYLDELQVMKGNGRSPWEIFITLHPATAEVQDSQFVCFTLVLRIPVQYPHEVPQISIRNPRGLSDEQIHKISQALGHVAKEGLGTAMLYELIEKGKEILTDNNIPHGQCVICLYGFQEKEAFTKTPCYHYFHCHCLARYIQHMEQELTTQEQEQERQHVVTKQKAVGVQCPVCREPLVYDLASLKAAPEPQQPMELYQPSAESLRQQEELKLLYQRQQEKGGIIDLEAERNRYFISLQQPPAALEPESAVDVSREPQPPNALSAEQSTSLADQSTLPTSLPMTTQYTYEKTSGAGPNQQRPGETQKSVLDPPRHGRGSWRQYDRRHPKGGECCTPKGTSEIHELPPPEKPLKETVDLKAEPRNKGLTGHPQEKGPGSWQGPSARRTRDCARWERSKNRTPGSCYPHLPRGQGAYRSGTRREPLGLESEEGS
UniProt O35625: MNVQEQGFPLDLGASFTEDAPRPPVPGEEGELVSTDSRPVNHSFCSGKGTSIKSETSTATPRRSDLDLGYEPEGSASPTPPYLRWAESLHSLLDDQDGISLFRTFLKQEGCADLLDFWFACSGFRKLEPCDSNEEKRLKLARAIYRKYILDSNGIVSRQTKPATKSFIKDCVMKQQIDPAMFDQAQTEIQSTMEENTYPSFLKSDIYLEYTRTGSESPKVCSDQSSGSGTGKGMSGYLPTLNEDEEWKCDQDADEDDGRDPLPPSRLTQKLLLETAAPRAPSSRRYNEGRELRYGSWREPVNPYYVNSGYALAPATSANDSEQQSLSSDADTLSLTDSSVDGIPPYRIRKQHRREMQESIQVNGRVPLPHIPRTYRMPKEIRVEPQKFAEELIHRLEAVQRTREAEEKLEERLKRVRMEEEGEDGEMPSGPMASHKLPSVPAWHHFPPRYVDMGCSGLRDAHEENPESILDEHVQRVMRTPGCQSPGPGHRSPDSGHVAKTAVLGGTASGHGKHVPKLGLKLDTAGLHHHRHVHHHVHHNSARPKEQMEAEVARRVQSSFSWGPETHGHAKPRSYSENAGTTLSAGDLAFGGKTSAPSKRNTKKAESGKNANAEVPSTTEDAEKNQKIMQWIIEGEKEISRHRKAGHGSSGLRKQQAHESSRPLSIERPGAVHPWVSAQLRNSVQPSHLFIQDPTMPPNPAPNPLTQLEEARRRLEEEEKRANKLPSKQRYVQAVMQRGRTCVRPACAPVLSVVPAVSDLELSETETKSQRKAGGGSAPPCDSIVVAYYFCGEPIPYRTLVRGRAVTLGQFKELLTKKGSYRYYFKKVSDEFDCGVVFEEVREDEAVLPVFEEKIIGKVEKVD

Key:
[1] = target: T1, endogenous Rnf25 (human (endogenous in HEK293T)) (UniProt Q96BH1); assay: co-IP; HEK293T transfected with HA-Nkd1 alone; endogenous Rnf25 precipitated with anti-Rnf25, blot with anti-HA
T1 sequence: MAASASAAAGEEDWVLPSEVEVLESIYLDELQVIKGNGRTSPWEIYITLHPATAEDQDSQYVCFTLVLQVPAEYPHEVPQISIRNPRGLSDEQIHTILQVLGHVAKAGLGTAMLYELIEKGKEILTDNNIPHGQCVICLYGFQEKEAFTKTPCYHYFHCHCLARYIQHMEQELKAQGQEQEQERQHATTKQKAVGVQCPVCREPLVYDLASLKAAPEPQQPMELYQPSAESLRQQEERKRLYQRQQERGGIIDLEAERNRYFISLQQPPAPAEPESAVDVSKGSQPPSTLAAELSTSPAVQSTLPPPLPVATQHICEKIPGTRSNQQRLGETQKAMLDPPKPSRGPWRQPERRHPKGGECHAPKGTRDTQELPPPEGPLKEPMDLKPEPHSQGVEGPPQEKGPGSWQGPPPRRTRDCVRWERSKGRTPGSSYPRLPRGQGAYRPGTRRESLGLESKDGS

[2] = target: HA-tagged Rnf25 N-terminal fragment (residues 1-112) (not stated (mouse Rnf25 from the screen; zebrafish rnf25 cDNA cloned; human C-terminal Rnf25 used as antigen)) (UniProt Q9QZR0); assay: co-IP; HEK293T co-transfected with two tagged proteins (HA, Myc); IP with anti-HA or anti-Myc and Protein A/G Plus-agarose, western blot; lysis buffer 20 mM Tris-HCl pH 7.4, 150 mM NaCl, 1% Triton
[3] = target: HA-tagged Rnf25 middle fragment (residues 113-291) containing the RING domain (not stated (mouse Rnf25 from the screen; zebrafish rnf25 cDNA cloned; human C-terminal Rnf25 used as antigen)) (UniProt Q9QZR0); assay: as above
[4] = target: HA-tagged full-length Rnf25 (not stated (mouse Rnf25 from the screen; zebrafish rnf25 cDNA cloned; human C-terminal Rnf25 used as antigen)) (UniProt Q9QZR0); assay: as above
HA-tagged Nkd1 = assay: co-IP; two-step co-IP from HEK293T transfected with HA-Nkd1: first IP with C2b (Axin) or control IgG, eluate precipitated again with anti-HA or control IgG; repeated under knock-down of Dvl2

With HA-tagged Nkd1 as the molecule, how does the binding [1] read?
The binding was “binds”.

Which binding [2] does the source give for “Myc-tagged Axin (from UniProt O35625 1-863)” here?
The binding was “no binding”.

What about the binding [3] of the same molecule?
The binding was “no binding”.

What about the binding [4] of the same molecule?
The binding was “binds”.

B1: endogenous Rnf25 (protein, UniProt Q96BH1 1-459)
chain: MAASASAAAGEEDWVLPSEVEVLESIYLDELQVIKGNGRTSPWEIYITLHPATAEDQDSQYVCFTLVLQVPAEYPHEVPQISIRNPRGLSDEQIHTILQVLGHVAKAGLGTAMLYELIEKGKEILTDNNIPHGQCVICLYGFQEKEAFTKTPCYHYFHCHCLARYIQHMEQELKAQGQEQEQERQHATTKQKAVGVQCPVCREPLVYDLASLKAAPEPQQPMELYQPSAESLRQQEERKRLYQRQQERGGIIDLEAERNRYFISLQQPPAPAEPESAVDVSKGSQPPSTLAAELSTSPAVQSTLPPPLPVATQHICEKIPGTRSNQQRLGETQKAMLDPPKPSRGPWRQPERRHPKGGECHAPKGTRDTQELPPPEGPLKEPMDLKPEPHSQGVEGPPQEKGPGSWQGPPPRRTRDCVRWERSKGRTPGSSYPRLPRGQGAYRPGTRRESLGLESKDGS
For B1, which binding (HA-tagged Nkd1) is on record?
Its binding is “binds”.
